Experimental data published in publication PMC5636754, “Structural and biochemical characterization of DAXX-ATRX interaction” (Protein & Cell, 2017).
Results are given in words; binding and its absence hold for the method and conditions named. Some entries that bind do so weakly or less than the wild type.

Amino acid sequences for entries named in this document (tags omitted). Residues count along the entry.
UniProt Q9UER7, residues 55-144: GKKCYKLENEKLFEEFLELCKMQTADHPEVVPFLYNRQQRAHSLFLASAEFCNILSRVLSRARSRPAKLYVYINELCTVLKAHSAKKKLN
UniProt Q00987, residues 293-317: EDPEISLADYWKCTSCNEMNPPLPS

Biological target: DAXX helical bundle (DHB) domain of death domain-associated protein (DAXX), aa 55-144 (UniProt Q9UER7)
Assay: native gel or EMSA; preformed DHB_(DAXX)-ATRX_(1,244–1,285) complex incubated with competitor peptides of different concentration, native-PAGE, Coomassie blue staining; both purified

Molecule	binding
Mdm2_(293–317) competitor peptide (from UniProt Q00987 293-317)	binds
GYCSQEDSDSELEQYFTARTSLARR (peptide, UniProt Q9NS23-4 20-44) [Rassf1c_(20–44) competitor peptide]	binds
